Experimental data taken from PMC11754801, “The molecular basis of Human FN3K mediated phosphorylation of glycated substrates” (Nature Communications, 2025).
No constants are given. Whether binding was seen depends on the method and setting.

What was measured:
HsFN3K C24S (human) [1] = molecular target: HsFN3K C24S (human) (UniProt Q9H479); assay: non-reducing SDS-PAGE; 5 µg protein incubated 20 min without DTT in MicroKit SEC buffer at room temperature; sample buffer without reducing agent; both purified
HsFN3K C24S (human) [2] = molecular target: HsFN3K C24S (human) (UniProt Q9H479); assay: SEC; Micro Kit SEC, Superdex 200 increase 3.2/300; 20 µg (~28 µM) protein; HEPES 25 mM pH 7.5, NaCl 150 mM, non-reducing; 20 min incubation before injection; both purified

binding (HsFN3K C24S (human) [1]): no binding (tested: 5 µg) | binding (HsFN3K C24S (human) [2]): no binding (tested: 20 µg (~28 µM))
B1: HsFN3K C24S (enzyme, UniProt Q9H479 1-309)
chain: MEQLLRAELRTATLRAFGGPGAGSISEGRAYDTDAGPVFVKVNRRTQARQMFEGEVASLEALRSTGLVRVPRPMKVIDLPGGGAAFVMEHLKMKSLSSQASKLGEQMADLHLYNQKLREKLKEEENTVGRRGEGAEPQYVDKFGFHTVTCCGFIPQVNEWQDDWPTFFARHRLQAQLDLIEKDYADREARELWSRLQVKIPDLFCGLEIVPALLHGDLWSGNVAEDDVGPIIYDPASFYGHSEFELAIALMFGGFPRSFFTAYHRKIPKAPGFDQRLLLYQLFNYLNHWNHFGREYRSPSLGTMRRLLK
